In patent CN111440239A:
No constants are given. Whether binding was seen depends on the method and setting. Some binding calls cover weakened binding; strength is not graded here.

The chains behind the UniProt entries cited, without tags or fusion partners. Where a name states a change or a piece, a line headed by the entry shows the natural chain unless it says otherwise. A line that says so, or that is headed by a name, gives the form on record, which may keep a tag or linker.
TGF-β1纯化蛋白 (recombinant human TGF-β1 with C-terminal 6His, from HEK-293T supernatant; holds LAP前体, TGF-β1单体 and 二聚体) (P01137, form named): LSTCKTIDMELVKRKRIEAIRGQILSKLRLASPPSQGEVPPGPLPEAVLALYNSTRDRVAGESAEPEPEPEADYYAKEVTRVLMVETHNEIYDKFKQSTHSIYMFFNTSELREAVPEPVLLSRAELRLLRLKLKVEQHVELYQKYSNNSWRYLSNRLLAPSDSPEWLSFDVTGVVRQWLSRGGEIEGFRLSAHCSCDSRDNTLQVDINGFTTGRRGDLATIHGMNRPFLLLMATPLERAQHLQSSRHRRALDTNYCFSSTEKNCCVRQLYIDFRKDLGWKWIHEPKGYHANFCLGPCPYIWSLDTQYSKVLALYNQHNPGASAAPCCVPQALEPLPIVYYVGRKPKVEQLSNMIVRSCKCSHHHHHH

Molecular target: TGF-β1纯化蛋白 (recombinant human TGF-β1 with C-terminal 6His, from HEK-293T supernatant; holds LAP前体, TGF-β1单体 and 二聚体) (human) (UniProt P01137)
Assay: indirect phage ELISA, TGF-β1 purified protein coated on the plate, anti-M13K07 enzyme conjugate; positive = reading at least 2-fold over the negative control

B1: 纳米抗体TGF-β1-VHH (B3纳米抗体), phage-displayed, culture supernatant of positive clone B3 (VHH)
VHH: ESGGGLAQAGGSLRLSCAASGSTFSINTMGWYRTVPGKQRELVALISSGGSTLYADFAKGRFTISRDNAKNTVYLQMNSLKPEDTAVYYCRSKGIGYDYWGQGTQVTVSS
Question: With B1 as the binder, how does the binding read?
Answer: binds
